{"source": "patent US7582424B2", "about": "(priority 2000, dated 2009)", "system": "Ace-induced Isc response by T84 cell monolayers", "assay": "cells", "format": "cell-based", "details": "Homo sapiens, T84, read-out: inhibition of peak Ace-induced Isc", "data": [{"smiles": "CN[C@@H]1C[C@H]2O[C@@](C)([C@@H]1OC)n1c3ccccc3c3c4c(c5c6ccccc6n2c5c31)C(=O)NC4", "note": "[staurosporine]", "values": [{"measurement": "inhibition at 0.1 µM", "value": 45, "unit": "%"}]}]}
